Results deposited as PubChem BioAssay AID504804 (Drosophila RNAi Screening Center, 2011)
The screen tested about 19,000 reagents; below is an unselected part of those with a known target gene and a result. In the full data, 47 (0.25%) got an active call. 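Signals are raw, not normalised; exact z-scores behind calls not deposited; actives needed confirmation, so some wells reaching 2 SD are inactive.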 A number with no mark means an inactive call. Reagents against one gene are numbered here. Names joined by + are all predicted targets of the reagent.

Aim: 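Fly genes whose loss lessens doxorubicin-driven cell death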 (primary screen)
Cell system: Drosophila Kc cells
Knock-down reagent: long dsRNA against Drosophila genes, 0.5 µg dsRNA per well
Time to read-out: 96 h (48 h knock-down, then 48 h drug)
Conditions: doxorubicin 5 µg/ml for 48 h, added 48 h after dsRNA
Measured: 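Viability measured as cellular ATP by luminescence after 48 h knock-down then 48 h doxorubicin at 5 µg/ml; unnormalised plate counts for each replicate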
Direction: raw ATP luminescence: higher = more viable cells, protection from doxorubicin
Call rule: 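Active when both duplicate wells lie at least 2 SD above the plate mean and protection is confirmed by rescreening and independent dsRNAs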

gene,reagent,"raw ATP luminescence, replicate 1","raw ATP luminescence, replicate 2"
CR18228 (pseudo),1,57257,58680
Prosalpha3 (Proteasome alpha3 subunit),1,52330,46470
Mdh2 (retired record),1,65250,82100
CG12617,1,58753,71970
px (plexus),1,32747,39407
CG12084,1,94340,56390
ktub (king tubby),1,71773,67610
Sys1 (Sys1 golgi trafficking protein),1,64293,70657
CG14131,1,85163,69963
Samuel,1,33457,56197
Samuel,2,22893,22397
Samuel,3,35663,74257
Hsp70Bc (Heat shock protein 70 Bc),1,54957,45810
CG32694,1,3.37e5,3.46e5
CG32694,2,3.82e5,3.39e5
CG11068,1,3.32e5,2.96e5
Cp18 (Chorion protein 18),1,82987,75680
CG32628 (retired record),1,2.59e5,2.22e5
Eh (Eclosion hormone),1,89720,72020
Tsen34 + Trl,1,87373,55690
dgt2 (dim gamma-tubulin 2),1,30100,48863
gpp (grappa),1,55433,62027
gpp (grappa),2,44597,48117
CG9555,1,42023,66327
Spc25,1,82480,75150
CG14913,1,44950,72167
CG5921,1,1.95e5,2.28e5
CG5921,2,50920,55890
Csl4,1,49430,63963
CG30423,1,77037,83727
CG42568 + DnaJ-60,1,40343,48383
CG42568 + DnaJ-60,2,75377,65570
br (broad),1,2.80e5,2.31e5
br (broad),2,50660,70860
br (broad),3,13670,18040
br (broad),4,21850,24500
CG17361,1,58840,51917
CG14851,1,71370,55210
Kaz (Katazuke),1,66310,60310
CG34256,1,57523,54190
CG7810,1,91687,68763
hig (hikaru genki),1,46600,55293
wa-cup (walker cup),1,60260,58113
CG3703,1,51240,54060
CG3703,2,61260,46880
CG3703,3,72510,59280
RpS2 (Ribosomal protein S2),1,32693,32220
CG14471 (retired record),1,66957,52987
beat-VI (beaten path VI),1,76200,37770
beat-VI (beaten path VI),2,72170,51910
CG6276,1,43857,27183
CG34355,1,2.00e5,2.23e5
CG34355,2,80670,72180
CG34355,3,67280,51640
ldbr (lariat debranching enzyme),1,38380,36617
Usp12-46 (Ubiquitin-specific protease 12/46),1,62610,63320
St1 (Sulfotransferase 1),1,66080,48273
CG17782,1,70380,76090
Npc2d (Niemann-Pick type C-2d),1,49337,40797
CG34406 (retired record),1,1.10e5,78820
CG34406 (retired record),2,19317,18773
CG18731,1,49380,35190
Amy-d + Amy-p,1,3.18e5,3.10e5
CG8508,1,49523,22037
CG9636,1,51323,21930
sfl (sulfateless),1,1.35e5,1.25e5
sfl (sulfateless),2,1.60e5,1.67e5
mthl11 (methuselah-like 11),1,93400,70720
Nedd8 (Nedd8 ubiquitin like modifier),1,46910,49347
cola + swif,1,64147,71643
AOX3 (Aldehyde oxidase 3),1,52950,28370
Nf-YC (Nuclear factor Y-box C),1,8940,11060
IntS1 (Integrator 1),1,51817,63953
Lrr47 (Leucine-rich repeat 47),1,1.03e5,1.01e5
CG33253,1,4.19e5,3.59e5
CG33253,2,4.53e5,3.43e5
Jhbp3 (Juvenile hormone binding protein 3),1,57923,60570
CG13039,1,47677,37603
mRpL49 (mitochondrial ribosomal protein L49),1,3.61e5,3.54e5
Smr (Smrter),1,57810,64460
CG31663,1,3.13e5,3.13e5
CG31663,2,1.04e5,74463
CG31663,3,1.60e5,1.98e5
RalGPS (Ral GEF with PH domain and SH3 binding motif),1,57097,58817
